According to patent US9951110B2, “Neuropeptides useful as insecticides” (THE STATE OF ISRAEL, MINISTRY OF AGRICULTURE & RURAL …, priority 2013, dated 2018):
Some results were stated once for a whole list of compounds, not compound by compound. Square brackets hold non-standard residues; d marks the D form. Ends that are not written are not given here. * marks the point of attachment. Fmoc = O=C(OCC1c2ccccc2-c2ccccc21)*

Experiments:
[1] = system: Heliothis peltigera female moths; test: In vivo pheromonotropic bioassay, agonistic activity by injection; details: injected to females, 100 pmol and 1 nmol; compared with 5 pmol PBAN
[2] = system: Heliothis peltigera female moths; test: Feeding: inhibition of sex pheromone biosynthesis after oral ingestion (oral bioavailability); format: in vivo; details: 1000 pmol, 1 h, in 10% sugar solution in DDW
[3] = system: Heliothis peltigera female moths; test: Topical application: inhibition of sex pheromone biosynthesis (cuticular bioavailability); format: in vivo; details: for inhibition of pheromone production: topical in DDW, 1 h, all tested concentrations (1 to 1000 pmol); for duration of activity / bio-stability within the insect after application: topical, 1 nmol in DDW, applied 1, 3 and 7 h before pheromone analysis
Procedure: FIG. 2. is a graph showing the effect of topically applied peptides on the inhibition of sex pheromone biosynthesis in Heliothis peltigera female moths. • The tested peptides are those listed in Table 1 (1-10, respectively). • Peptides were tested at a concentration of 10 pmol and were applied in IIS (0.5% ethanol, 0.05% Tween-80 in DDW), and DDW for 1 h. • Sex pheromone content is expressed as a percentage of the endogenous pheromone content obtained using control untreated moths (defined as 100%). Statistical analysis compared pheromone content in the presence of each peptide with that obtained with the corresponding solvents themselves (indicated by an asterisk).
FIG. 3A and FIG. 3B are graphs showing the dose response of Ac-A-dPhe-4 (3A) or Ac-A-dPhe-6 (3B) on inhibition of sex pheromone biosynthesis in Heliothis peltigera female moths. Peptides were applied in DDW for 1 h. • Sex pheromone content is expressed as a percentage of the endogenous pheromone content obtained using control untreated moths (defined as 100%). Statistical analysis compared pheromone content in the presence of each peptide at the indicated concentrations with that obtained with the solvent itself (indicated by an asterisk). A similar statistical analysis was also made against the pheromone content of untreated moths (indicated by #). […] Differences in the potency of the peptides at the indicated concentrations are depicted by letters.
FIG. 4. is a graph showing the time response of 1 nmol Ac-A-dPhe-4 and Ac-A-dPhe-6 (applied in DDW) on inhibition of sex pheromone biosynthesis in Heliothis peltigera female moths. • Sex pheromone content is expressed as a percentage of the endogenous pheromone content obtained using control untreated moths (defined as 100%). Statistical analysis compared pheromone content in the presence of each peptide at the indicated times with that obtained with the solvent itself at the same time point (indicated by an asterisk). […] Differences in the potency of the peptides at the indicated time points are depicted by letters. (Ac-A-dPhe-4: small letters; Ac-A-dPhe-6: capital letters).
FIG. 5A to FIG. 5C are graphs showing the effect of topically applied peptides on inhibition of sex pheromone biosynthesis in Heliothis peltigera female moths. • The tested peptides are those listed in Table 1 (1-6, respectively). Peptides were tested at a concentration of 1000 pmol (5A), 300 pmol (5B) or 100 pmol (5C) and were applied in DDW, DMSO and IIS for 7h. • Sex pheromone content is expressed as a percentage of the endogenous pheromone content obtained using control untreated moths (defined as 100%). […]

Substance | pheromonotropic agonistic activity [1] | inhibition of sex pheromone production after oral ingestion [2] | inhibition of pheromone production [3] | duration of activity / bio-stability within the insect after application [3]
Ac-RYFSP[dF]L-NH2 [Ac-dPhe-6] | lack any agonistic activity | over 60% | – | –
Cyclohexyl-Ala-Ser-Pro-[dPhe]-Leu-amide (ASPFL; N-cyclohexyl cap, D-Phe, C-terminal amide; N-term Cyclohexyl; MOD_RES (4)..(4) D-Phe; C-term amide) [Cyc-A-dPhe-6] | lack any agonistic activity | over 60% | – | –
Ac-RYF[dF]PRL-NH2 [Ac-dPhe-4] | lack any agonistic activity | – | – | –
Ac-A[dF]PRL-NH2 [Ac-A-dPhe-4] | lack any agonistic activity | – | 80-99% | at least 7 hours
RYFSP[dF]L-NH2 [dPhe-6] | lack any agonistic activity | – | – | –
Fmoc-A[dF]PRL-NH2 [Fmoc-A-dPhe-4] | lack any agonistic activity | over 60% | – | –
Ac-ASP[dF]L-NH2 [Ac-A-dPhe-6] | lack any agonistic activity | – | 80-99% | at least 7 hours
Cyclohexyl-Ala-[dPhe]-Pro-Arg-Leu-amide (AFPRL; N-cyclohexyl cap, D-Phe, C-terminal amide; N-term Cyclohexyl; MOD_RES (2)..(2) D-Phe; C-term amide) [Cyc-A-dPhe-4] | lack any agonistic activity | – | – | –
Fmoc-ASP[dF]L-NH2 [Fmoc-A-dPhe-6] | lack any agonistic activity | – | – | –
RYF[dF]PRL-NH2 [dPhe-4] | lack any agonistic activity | over 60% | – | –
